Results deposited as PubChem BioAssay AID743121 (NCATS, 2013).
Assay: 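Genes whose silencing strengthens cell killing by camptothecin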 (primary screen). Cell system: MDA-MB-231 cells, a human breast cancer line. Knock-down reagent: single siRNA against human genes, 20 nM siRNA (0.8 pmol per well). Time to read-out: 120 h (drug added 48 h after transfection, read 72 h later). Conditions: camptothecin 20 nM (about EC30) for 72 h; vehicle 0.1% DMSO in parallel plates. Measurement: 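Cell viability by ATP luminescence (CellTiter-Glo) as % of non-targeting siRNA wells, and the log2 ratio of viability without drug over viability with camptothecin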. Reading the numbers: log2 vehicle/camptothecin viability: higher = stronger sensitisation to camptothecin; viability with camptothecin: higher = more viable cells. Hit rule: 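Active genes have an RSA gene-level p-value below 0.001, computed from the ratios of their separate siRNAs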.
In all, the deposit lists about 26,000 reagents; shown is a random part of them. 167 of all reagents (0.63%) count as active. 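Calls are per gene from RSA p-values that are not deposited; an individual active-marked siRNA can sensitise only weakly.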 A number with no mark means an inactive call. Not all columns of the deposit are shown.

target gene | PubChem SID | log2 vehicle/camptothecin viability | viability with camptothecin (% of control)
CILP (cartilage intermediate layer protein) | SID164397887 | -0.326 | 82.3
CILP (cartilage intermediate layer protein) | SID164397888 | -0.0589 | 93.6
CILP (cartilage intermediate layer protein) | SID164397890 | -0.101 | 121
CILP (cartilage intermediate layer protein) | SID164397892 | -0.114 | 117
CDC42BPB (CDC42 binding protein kinase beta) | SID164404665 | -0.568 | 105
CDC42BPB (CDC42 binding protein kinase beta) | SID164404666 | 0.0913 | 102
CDC42BPB (CDC42 binding protein kinase beta) | SID164404667 | -0.139 | 90.1
CDC42BPB (CDC42 binding protein kinase beta) | SID164404668 | -0.317 | 67.6
BAZ1A (bromodomain adjacent to zinc finger domain 1A) | SID164416118 | 0.582 | 41.9
BAZ1A (bromodomain adjacent to zinc finger domain 1A) | SID164416119 | -0.271 | 136
BAZ1A (bromodomain adjacent to zinc finger domain 1A) | SID164416121 | -0.33 | 34.6
BAZ1A (bromodomain adjacent to zinc finger domain 1A) | SID164416122 | 0.109 | 98
NPY5R (neuropeptide Y receptor Y5) | SID164378434 | -0.548 | 63.1
NPY5R (neuropeptide Y receptor Y5) | SID164378435 | -0.396 | 97.5
NPY5R (neuropeptide Y receptor Y5) | SID164378437 | 0.114 | 67.9
NPY5R (neuropeptide Y receptor Y5) | SID164378440 | -0.18 | 92.3

Records listed so far whose target name begins with B or b (4):
target gene | PubChem SID | log2 vehicle/camptothecin viability | viability with camptothecin (% of control)
BAZ1A (bromodomain adjacent to zinc finger domain 1A) | SID164416118 | 0.582 | 41.9
BAZ1A (bromodomain adjacent to zinc finger domain 1A) | SID164416119 | -0.271 | 136
BAZ1A (bromodomain adjacent to zinc finger domain 1A) | SID164416121 | -0.33 | 34.6
BAZ1A (bromodomain adjacent to zinc finger domain 1A) | SID164416122 | 0.109 | 98

The list goes on.
target gene | PubChem SID | log2 vehicle/camptothecin viability | viability with camptothecin (% of control)
PIK3C2G | SID164380756 | 0.205 | 40.7
PIK3C2G | SID164380757 | -0.0576 | 106
PIK3C2G | SID164380758 | -0.199 | 121
PIK3C2G | SID164380759 | 0.13 | 74.7
BMP1 (bone morphogenetic protein 1) | SID164355391 | -0.267 | 104
BMP1 (bone morphogenetic protein 1) | SID164355395 | -0.00243 | 65
BMP1 (bone morphogenetic protein 1) | SID164355399 | -0.322 | 89.9
LATS2 (large tumor suppressor kinase 2) | SID164460520 | -0.394 | 80
LATS2 (large tumor suppressor kinase 2) | SID164460522 | 0.204 | 62.8
LATS2 (large tumor suppressor kinase 2) | SID164460527 | -0.192 | 77.2
LATS2 (large tumor suppressor kinase 2) | SID164460528 | -0.214 | 106
GDF2 (growth differentiation factor 2) | SID164366333 | -0.233 | 98.1
GDF2 (growth differentiation factor 2) | SID164366334 | -0.386 | 62.2
GDF2 (growth differentiation factor 2) | SID164366335 | -0.0523 | 99.1
GDF2 (growth differentiation factor 2) | SID164366336 | -0.315 | 124
